The target of the experiment is CHOP-3XFLAG fusion protein (human) (UniProt P35638). Put plainly: co-IP.

By UniProt entry, the sequences of proteins in these tests, tags left out.
UniProt P35638: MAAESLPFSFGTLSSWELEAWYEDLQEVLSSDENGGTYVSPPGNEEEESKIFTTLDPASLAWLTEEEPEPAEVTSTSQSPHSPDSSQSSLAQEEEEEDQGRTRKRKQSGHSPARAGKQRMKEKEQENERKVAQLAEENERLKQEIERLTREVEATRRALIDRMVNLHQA
UniProt P05412: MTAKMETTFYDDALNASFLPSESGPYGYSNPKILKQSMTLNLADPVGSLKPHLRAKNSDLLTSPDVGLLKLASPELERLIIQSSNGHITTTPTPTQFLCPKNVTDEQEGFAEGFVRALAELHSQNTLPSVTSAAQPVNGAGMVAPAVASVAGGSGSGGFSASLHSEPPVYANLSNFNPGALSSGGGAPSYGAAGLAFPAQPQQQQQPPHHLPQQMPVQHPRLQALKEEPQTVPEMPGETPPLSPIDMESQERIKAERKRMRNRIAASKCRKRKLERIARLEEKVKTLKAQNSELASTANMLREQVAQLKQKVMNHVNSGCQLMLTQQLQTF

These are yes or no findings as the source states them, for the method shown. In cells and extracts the contact can be indirect. Some entries that bind do so weakly or less than the wild type.

Take “c-JUN-MYC fusion protein (from UniProt P05412 1-331)”: the binding entry was “binds”.

The values above are taken from paper doi:10.1101/2020.05.04.076752.
